Reference: paper PMC6468817
Results are given in words; binding and its absence hold for the method and conditions named. In cells and extracts the contact can be indirect. Some results given as binding are weak or reduced against the parent protein; the word gives no strength. Where a sequence is shown, tags or fusion partners need not be part of it.

Chains of the proteins cited; added tags and fusions are not shown.
UniProt Q96G97: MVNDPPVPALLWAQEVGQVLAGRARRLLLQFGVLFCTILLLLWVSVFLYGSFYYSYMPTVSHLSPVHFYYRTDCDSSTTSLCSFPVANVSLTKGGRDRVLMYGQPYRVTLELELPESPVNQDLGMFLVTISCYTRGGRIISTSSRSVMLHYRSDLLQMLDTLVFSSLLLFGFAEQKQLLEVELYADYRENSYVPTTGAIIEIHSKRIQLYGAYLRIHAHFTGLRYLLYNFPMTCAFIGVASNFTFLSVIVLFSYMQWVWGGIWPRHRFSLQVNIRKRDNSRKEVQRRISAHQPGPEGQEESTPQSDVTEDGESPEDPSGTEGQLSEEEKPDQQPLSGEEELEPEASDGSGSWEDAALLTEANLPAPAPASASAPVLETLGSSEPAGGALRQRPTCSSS
UniProt P18850: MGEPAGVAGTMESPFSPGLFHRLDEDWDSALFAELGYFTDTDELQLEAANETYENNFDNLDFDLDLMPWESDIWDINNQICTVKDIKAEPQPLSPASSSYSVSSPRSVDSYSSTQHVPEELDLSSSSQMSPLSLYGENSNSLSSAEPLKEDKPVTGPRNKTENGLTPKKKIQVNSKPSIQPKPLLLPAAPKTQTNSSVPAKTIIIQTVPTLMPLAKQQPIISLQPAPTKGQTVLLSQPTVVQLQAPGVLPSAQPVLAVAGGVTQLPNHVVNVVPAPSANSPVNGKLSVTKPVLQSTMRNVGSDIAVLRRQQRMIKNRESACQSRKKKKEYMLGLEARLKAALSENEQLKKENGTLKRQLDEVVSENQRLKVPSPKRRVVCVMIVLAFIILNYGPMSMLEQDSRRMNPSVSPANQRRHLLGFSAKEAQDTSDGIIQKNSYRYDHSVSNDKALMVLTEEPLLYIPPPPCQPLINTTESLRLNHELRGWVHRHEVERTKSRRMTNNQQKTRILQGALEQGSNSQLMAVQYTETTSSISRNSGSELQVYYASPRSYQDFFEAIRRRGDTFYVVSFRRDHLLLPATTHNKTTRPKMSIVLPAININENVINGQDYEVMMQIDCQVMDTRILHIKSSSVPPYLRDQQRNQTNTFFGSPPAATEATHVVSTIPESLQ

T1: Flag-tagged promethin (human) (UniProt Q96B96)
T1 sequence: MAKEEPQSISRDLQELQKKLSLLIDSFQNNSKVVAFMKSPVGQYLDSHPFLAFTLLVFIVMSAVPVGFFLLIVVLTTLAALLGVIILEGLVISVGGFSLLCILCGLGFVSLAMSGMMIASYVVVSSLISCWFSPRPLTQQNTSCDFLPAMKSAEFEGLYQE

T2: human promethin-GFP expressed in yeast (human) (UniProt Q96B96)
T2 sequence: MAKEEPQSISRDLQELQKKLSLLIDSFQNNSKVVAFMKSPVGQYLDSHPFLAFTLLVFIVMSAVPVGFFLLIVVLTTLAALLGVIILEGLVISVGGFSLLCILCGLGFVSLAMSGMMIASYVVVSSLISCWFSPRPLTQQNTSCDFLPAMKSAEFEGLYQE


Key:
[1] = target: T1, Flag-tagged promethin (human); assay: co-IP; FLAG-tagged promethin and myc-tagged seipin forms co-expressed in HEK293 cells; anti-FLAG agarose beads; elution with 3xFLAG peptide in TBS; Western blot
[2] = target: T1, Flag-tagged promethin (human); assay: co-IP; Flag-promethin and seipin-Myc co-expressed in MCF7 cells, 200 µM oleic acid for 48 h; lysis in 25 mM Tris HCl pH 7.5, 150 mM NaCl, 0.5 mM EDTA, 1% NP-40; anti-FLAG beads 2 h at 4 °C; elution with 0.2 M glycine pH 2.5; Western blot
[3] = target: T2, human promethin-GFP expressed in yeast (human); assay: co-IP; human promethin-GFP expressed in yeast; lysis in 50 mM Tris HCl pH 7, 150 mM NaCl, 1% digitonin; GFP-trap 1 h at 4 °C; elution with 0.2 M glycine pH 2.5; Western blot with antibodies against Sei1 and Ldb16

Molecule	binding [3]	also measured
myc-tagged seipin, short form (seipin-S) (from UniProt Q96G97 1-398)	–	binding [1]: binds
ATF6 (endogenous in MCF7 cells) (from UniProt P18850 1-670)	–	binding [2]: no binding
Sei1 (protein, UniProt Q06058 1-285) MKINVSRPLQFLQWSSYIVVAFLIQLLIILPLSILIYHDFYLRLLPADSSNVVPLNTFNILNGVQFGTKFFQSIKSIPVGTDLPQTIDNGLSQLIPMRDNMEYKLDLNLQLYCQSKTDHLNLDNLLIDVYRGPGPLLGAPGGSNSKDEKIFHTSRPIVCLALTDSMSPQEIEQLGPSRLDVYDEEWLNTIRIEDKISLESSYETISVFLKTEIAQRNLIIHPESGIKFRMNFEQGLRNLMLRKRFLSYIIGISIFHCIICVLFFITGCTAFIFVRKGQEKSKKHS	binds	–
Ldb16 (protein, UniProt P25587 1-256) MFVVDWSVQLCMGVISPLFRALVQLPLSIFVWNGFQLVALPINIPLRLFLGTSLSRLVAQTSTLDFYVVLTLFQYFAVLCAFGSIIGLIFGFILGVFHSICGVPSVYISLEWKRWFAPIRTVLERASTSIVNIMRGQTIAPIPMPKPNPTHISKPNMKKFHDEPGADDMTITHDVNCYITPCQTPTNEKIQHYNNDSFNTTTTDDEPTDIWDRSDTYQNSFVTNETLMSLSNRAKLRRNASDADIVNIKILRRNSR	binds	–
